The list shows a part of the results. Most entries show no effect beyond the scatter of the controls.
compound: CN[C@@H]1C[C@H]2O[C@@](C)([C@@H]1OC)n1c3ccccc3c3c4c(c5c6ccccc6n2c5c31)C(=O)NC4 [staurosporine]; assay: log2 fold change of tryptic peptide abundance, ligand vs vehicle (limited proteolysis) (log2 ratio); higher = more trypsin-susceptible (destabilized); settings: ligand concentration: 20 uM; sample: mouse liver crude lysate; replicate design: treated separately

Chains of the proteins cited; added tags and fusions are not shown. Lines headed by an entry give the natural chain unless they say otherwise; changes in a name come on top.
UniProt Q80XL1: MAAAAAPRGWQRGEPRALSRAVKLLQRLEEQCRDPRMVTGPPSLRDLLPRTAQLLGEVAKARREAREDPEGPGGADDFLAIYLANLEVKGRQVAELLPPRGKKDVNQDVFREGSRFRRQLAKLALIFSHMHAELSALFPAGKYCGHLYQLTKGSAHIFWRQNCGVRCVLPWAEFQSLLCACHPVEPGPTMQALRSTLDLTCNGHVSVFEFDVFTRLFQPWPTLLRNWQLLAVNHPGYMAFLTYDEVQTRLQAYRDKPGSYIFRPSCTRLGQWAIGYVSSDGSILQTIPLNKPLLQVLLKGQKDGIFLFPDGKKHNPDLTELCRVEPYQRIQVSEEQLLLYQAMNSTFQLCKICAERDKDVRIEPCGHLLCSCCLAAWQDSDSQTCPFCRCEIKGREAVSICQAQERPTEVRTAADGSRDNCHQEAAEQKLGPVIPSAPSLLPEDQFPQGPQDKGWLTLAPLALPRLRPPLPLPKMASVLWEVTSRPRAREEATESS
UniProt Q80ZS3: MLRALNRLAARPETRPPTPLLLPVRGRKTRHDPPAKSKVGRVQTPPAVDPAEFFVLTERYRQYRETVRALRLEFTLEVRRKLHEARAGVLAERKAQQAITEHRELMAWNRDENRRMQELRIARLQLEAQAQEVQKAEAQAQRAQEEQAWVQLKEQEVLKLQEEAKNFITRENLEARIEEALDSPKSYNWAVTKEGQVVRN
UniProt Q80X82: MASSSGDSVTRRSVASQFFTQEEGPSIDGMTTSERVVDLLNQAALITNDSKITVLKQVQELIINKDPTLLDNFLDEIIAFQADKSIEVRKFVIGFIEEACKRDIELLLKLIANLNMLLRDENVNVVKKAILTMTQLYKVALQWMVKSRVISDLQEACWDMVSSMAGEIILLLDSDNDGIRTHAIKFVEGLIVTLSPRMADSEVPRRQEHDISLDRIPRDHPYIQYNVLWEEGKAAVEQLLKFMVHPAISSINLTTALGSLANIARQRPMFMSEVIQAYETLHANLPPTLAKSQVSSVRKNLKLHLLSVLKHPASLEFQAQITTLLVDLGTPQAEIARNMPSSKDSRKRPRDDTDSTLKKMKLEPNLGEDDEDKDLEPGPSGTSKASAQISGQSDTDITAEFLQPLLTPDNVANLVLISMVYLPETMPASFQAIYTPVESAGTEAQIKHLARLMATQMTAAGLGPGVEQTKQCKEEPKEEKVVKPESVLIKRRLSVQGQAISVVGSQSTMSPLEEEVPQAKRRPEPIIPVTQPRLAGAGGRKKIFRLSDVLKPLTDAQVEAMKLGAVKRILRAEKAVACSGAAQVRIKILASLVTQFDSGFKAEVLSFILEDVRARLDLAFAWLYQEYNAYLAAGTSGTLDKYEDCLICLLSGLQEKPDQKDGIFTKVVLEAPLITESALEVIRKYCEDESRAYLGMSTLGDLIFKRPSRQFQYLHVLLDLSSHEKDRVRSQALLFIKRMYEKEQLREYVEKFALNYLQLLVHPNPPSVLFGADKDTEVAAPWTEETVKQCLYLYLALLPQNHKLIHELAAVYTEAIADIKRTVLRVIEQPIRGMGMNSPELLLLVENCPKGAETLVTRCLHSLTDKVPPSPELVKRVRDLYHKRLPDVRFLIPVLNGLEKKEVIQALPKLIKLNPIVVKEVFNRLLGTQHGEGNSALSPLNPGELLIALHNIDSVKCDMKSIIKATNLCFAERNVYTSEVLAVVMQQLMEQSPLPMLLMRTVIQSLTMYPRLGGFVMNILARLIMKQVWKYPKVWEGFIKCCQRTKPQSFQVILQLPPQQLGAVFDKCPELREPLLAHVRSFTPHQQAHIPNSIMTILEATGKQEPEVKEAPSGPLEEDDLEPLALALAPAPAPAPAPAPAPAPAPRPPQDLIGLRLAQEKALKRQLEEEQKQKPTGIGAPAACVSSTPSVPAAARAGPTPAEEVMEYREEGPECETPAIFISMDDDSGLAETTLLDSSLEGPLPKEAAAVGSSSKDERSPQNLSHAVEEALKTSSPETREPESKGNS
UniProt Q80XI3, whole entry: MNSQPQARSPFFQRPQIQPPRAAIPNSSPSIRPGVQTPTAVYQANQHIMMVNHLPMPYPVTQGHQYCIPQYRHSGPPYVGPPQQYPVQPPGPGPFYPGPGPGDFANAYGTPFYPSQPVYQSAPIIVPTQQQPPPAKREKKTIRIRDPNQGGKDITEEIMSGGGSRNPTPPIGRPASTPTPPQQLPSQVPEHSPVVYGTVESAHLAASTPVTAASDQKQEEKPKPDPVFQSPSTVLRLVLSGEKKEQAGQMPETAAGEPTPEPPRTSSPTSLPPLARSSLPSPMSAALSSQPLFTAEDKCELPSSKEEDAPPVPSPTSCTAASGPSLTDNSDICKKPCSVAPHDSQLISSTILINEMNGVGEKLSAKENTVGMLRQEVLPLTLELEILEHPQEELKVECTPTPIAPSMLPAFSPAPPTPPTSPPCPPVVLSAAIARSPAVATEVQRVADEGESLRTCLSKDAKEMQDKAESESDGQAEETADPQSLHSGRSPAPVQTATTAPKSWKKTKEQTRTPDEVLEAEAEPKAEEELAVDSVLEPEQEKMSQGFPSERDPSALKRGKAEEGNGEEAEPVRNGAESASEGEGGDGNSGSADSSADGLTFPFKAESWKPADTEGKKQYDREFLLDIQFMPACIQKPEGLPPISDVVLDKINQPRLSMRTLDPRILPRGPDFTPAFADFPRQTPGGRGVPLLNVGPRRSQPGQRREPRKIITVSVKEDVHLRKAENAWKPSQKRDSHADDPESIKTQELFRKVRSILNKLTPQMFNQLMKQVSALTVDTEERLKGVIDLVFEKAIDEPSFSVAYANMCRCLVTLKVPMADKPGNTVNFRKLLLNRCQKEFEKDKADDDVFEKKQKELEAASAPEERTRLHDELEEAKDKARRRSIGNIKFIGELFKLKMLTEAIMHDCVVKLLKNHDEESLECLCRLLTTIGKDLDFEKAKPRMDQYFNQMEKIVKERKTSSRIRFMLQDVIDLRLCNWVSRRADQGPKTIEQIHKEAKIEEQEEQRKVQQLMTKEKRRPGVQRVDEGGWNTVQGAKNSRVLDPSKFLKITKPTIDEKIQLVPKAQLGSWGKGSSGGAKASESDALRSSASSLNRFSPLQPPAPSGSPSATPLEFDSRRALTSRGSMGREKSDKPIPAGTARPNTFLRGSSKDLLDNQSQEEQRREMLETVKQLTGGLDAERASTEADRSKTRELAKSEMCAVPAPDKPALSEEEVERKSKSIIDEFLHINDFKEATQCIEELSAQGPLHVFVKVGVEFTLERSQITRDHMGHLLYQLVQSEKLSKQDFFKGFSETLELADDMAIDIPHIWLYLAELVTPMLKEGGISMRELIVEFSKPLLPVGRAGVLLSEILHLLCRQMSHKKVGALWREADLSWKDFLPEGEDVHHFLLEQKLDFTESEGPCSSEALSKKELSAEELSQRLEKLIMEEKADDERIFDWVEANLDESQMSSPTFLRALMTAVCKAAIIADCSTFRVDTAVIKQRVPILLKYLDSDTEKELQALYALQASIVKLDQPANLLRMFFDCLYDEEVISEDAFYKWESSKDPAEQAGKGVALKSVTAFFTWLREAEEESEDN
UniProt Q80Y14: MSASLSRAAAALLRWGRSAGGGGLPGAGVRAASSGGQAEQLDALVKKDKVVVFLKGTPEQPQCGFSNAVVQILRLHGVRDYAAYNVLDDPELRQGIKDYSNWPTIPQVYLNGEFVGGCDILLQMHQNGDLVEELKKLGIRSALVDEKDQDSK
UniProt Q80XR2: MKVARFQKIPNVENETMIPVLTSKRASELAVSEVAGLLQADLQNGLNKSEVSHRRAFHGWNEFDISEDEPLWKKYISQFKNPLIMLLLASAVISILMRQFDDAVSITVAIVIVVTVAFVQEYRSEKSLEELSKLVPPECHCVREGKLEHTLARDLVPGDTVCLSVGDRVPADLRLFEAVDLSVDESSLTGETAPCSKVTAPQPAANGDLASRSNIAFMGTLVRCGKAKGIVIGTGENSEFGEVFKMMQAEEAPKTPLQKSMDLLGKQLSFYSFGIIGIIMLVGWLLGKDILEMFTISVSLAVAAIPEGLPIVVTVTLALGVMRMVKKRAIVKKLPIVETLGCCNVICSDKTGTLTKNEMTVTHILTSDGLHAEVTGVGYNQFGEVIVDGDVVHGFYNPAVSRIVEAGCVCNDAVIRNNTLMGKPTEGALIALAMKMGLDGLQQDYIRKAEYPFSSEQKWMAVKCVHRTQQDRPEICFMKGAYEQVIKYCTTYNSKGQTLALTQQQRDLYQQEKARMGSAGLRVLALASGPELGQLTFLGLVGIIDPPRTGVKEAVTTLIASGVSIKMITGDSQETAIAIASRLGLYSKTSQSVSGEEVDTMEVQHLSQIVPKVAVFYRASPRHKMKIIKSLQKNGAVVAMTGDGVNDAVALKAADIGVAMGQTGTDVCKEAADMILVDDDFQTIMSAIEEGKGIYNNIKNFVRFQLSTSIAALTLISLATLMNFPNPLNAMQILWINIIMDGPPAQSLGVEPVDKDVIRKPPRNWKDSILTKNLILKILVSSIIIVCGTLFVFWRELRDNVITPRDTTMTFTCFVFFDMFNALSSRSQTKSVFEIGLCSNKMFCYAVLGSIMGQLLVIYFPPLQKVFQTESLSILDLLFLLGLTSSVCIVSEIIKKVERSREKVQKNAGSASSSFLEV
UniProt Q80WJ7: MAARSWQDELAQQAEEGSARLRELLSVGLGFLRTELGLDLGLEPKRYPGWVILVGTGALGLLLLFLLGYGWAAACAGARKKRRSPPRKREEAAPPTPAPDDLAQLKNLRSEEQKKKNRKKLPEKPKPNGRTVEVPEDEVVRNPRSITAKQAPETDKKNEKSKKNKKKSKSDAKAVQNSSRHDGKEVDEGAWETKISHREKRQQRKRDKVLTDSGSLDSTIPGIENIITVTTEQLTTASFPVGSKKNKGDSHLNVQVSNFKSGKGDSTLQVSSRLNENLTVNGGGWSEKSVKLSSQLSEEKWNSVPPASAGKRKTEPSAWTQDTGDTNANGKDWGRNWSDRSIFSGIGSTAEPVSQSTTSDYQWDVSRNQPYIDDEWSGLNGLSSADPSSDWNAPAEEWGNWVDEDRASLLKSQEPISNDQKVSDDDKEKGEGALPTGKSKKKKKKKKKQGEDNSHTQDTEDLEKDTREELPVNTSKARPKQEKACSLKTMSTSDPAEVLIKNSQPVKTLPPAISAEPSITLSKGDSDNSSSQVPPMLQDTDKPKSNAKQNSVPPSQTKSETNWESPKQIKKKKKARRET
UniProt Q80WQ2: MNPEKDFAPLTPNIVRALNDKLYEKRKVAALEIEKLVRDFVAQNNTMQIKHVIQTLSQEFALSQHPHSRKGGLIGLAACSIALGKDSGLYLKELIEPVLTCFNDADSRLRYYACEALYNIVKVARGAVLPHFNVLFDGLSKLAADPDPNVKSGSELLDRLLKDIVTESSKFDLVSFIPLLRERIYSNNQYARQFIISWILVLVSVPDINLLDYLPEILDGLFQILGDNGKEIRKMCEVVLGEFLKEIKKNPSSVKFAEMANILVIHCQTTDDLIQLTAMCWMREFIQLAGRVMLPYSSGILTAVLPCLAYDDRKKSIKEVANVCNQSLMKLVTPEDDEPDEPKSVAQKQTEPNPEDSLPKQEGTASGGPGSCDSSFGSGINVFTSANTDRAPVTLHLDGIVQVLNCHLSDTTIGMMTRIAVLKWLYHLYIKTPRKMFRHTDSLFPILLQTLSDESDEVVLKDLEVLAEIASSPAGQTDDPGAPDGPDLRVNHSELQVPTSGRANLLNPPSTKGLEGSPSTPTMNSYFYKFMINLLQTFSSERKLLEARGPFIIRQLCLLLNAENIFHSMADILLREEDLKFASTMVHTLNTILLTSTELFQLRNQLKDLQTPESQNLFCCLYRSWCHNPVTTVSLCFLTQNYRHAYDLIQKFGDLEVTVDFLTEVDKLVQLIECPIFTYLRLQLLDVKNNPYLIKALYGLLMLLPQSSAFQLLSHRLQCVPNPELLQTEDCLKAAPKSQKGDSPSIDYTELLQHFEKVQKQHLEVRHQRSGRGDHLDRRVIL
UniProt Q80YA3: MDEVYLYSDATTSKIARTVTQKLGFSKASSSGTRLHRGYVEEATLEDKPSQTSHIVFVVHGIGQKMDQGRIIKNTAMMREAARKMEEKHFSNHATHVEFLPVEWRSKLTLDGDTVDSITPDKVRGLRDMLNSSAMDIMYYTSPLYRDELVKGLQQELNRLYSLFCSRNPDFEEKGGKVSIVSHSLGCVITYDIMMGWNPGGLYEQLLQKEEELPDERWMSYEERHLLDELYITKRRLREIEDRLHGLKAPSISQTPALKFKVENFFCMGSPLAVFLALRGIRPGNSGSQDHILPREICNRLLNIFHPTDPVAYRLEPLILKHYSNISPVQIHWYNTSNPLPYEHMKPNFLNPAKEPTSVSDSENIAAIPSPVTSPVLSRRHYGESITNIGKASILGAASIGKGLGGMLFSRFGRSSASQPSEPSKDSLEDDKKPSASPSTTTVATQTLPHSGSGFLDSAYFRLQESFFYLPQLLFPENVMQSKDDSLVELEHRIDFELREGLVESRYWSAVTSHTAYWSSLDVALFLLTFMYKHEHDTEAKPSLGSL

Row | Target | log2 fold change
1 | UniProt Q80XL1 (peptide sequence: DVNQDVFR, peptide start residue: 104) | 0.38
2 | UniProt Q80ZS3 (peptide sequence: ENLEARIEEALDSPKSYNWAVTK, peptide start residue: 171) | 0.547
3 | UniProt Q80X82 (peptide sequence: RQEHDISLDRIPR, peptide start residue: 206) | 0.245
4 | UniProt Q80XI3 (peptide sequence: VADEGESLR, peptide start residue: 446) | -0.184
5 | UniProt Q80Y14 (peptide sequence: DKVVVFLK, peptide start residue: 48) | 0.0236
6 | UniProt Q80XR2 (peptide sequence: GQTLALTQQQR, peptide start residue: 496) | -0.378
7 | UniProt Q80WJ7 (peptide sequence: KTEPSAWTQDTGDTNANGKDWGR, peptide start residue: 313) | -0.282
8 | UniProt Q80WQ2 (peptide sequence: LAADPDPNVK, peptide start residue: 142) | -0.232
9 | UniProt Q80YA3 (peptide sequence: HLLDELYITK, peptide start residue: 225) | -0.136
10 | UniProt Q80VI1 (peptide sequence: CVLPQLELHPGLEDK, peptide start residue: 347) | 0.255
11 | UniProt Q8BG81 (peptide sequence: CLDGQPMK, peptide start residue: 338) | 0.425

Rewritten as a markdown table: part of the list above.

| Row | Target | log2 fold change |
| --- | --- | --- |
| 6 | UniProt Q80XR2 (peptide sequence: GQTLALTQQQR, peptide start residue: 496) | -0.378 |
| 7 | UniProt Q80WJ7 (peptide sequence: KTEPSAWTQDTGDTNANGKDWGR, peptide start residue: 313) | -0.282 |

— the supplement of paper PMC12819154, “High-throughput peptide-centric local stability assay extends protein–ligand identification to membrane proteins, tissues and bacteria” (Nature Structural & Molecular Biology, 2025)
